The experiment concerns the target T1, TNFR1 (mouse, endogenous) (mouse (endogenous in MEFs)) (UniProt P25118).
T1 sequence: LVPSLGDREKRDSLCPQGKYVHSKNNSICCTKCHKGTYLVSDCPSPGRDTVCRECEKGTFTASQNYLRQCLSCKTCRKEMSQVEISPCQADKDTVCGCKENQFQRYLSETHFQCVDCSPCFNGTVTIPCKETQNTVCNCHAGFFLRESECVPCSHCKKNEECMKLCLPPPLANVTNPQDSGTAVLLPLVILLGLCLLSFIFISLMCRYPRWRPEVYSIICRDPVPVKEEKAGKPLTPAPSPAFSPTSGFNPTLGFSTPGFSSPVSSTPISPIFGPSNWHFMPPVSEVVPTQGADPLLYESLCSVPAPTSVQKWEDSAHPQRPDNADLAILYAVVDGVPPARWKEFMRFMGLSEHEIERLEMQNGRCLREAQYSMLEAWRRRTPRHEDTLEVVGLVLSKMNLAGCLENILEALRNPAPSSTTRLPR
Nature of the experiment: co-IP; complex I precipitated with TNFR1 antibody from Ripk1+/+ and Ripk1K612R/K612R MEFs treated with mTNFα (100 ng/ml) for indicated times; western blot. Background: In western blotting, separated proteins are transferred to a membrane and probed.

The chains behind the UniProt entries cited, without tags or fusion partners. Where a name states a change or a piece, a line headed by the entry shows the natural chain unless it says otherwise.
UniProt Q60680: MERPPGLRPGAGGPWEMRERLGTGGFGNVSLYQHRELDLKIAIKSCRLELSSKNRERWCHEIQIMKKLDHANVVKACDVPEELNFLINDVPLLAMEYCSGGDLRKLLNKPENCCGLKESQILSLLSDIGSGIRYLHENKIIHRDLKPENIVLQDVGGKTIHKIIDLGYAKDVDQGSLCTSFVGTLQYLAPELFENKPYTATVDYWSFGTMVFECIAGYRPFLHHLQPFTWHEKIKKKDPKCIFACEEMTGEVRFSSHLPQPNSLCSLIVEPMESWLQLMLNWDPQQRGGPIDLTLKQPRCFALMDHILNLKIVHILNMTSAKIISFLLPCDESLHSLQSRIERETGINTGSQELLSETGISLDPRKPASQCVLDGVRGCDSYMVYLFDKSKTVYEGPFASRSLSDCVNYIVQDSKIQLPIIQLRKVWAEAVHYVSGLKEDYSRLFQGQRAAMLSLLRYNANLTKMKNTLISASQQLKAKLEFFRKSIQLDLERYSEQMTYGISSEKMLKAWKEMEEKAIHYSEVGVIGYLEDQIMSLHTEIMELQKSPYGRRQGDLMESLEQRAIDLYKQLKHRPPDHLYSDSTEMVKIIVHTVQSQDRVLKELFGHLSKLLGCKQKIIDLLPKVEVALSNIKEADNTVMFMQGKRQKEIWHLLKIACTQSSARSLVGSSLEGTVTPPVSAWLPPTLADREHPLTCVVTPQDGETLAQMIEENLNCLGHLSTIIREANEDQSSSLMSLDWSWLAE

These are yes or no findings as the source states them, for the method shown. In cells and extracts the contact can be indirect. Some entries that bind do so weakly or less than the wild type.

Consider “IKKα/β (mouse, endogenous) (from UniProt Q60680 1-745; O88351 1-757) (complex)”, for which the binding result was “binds”.

The values are drawn from paper PMC7733462.
